According to patent US20250114320A1 (SERVIZO GALEGO DE SAÚDE, priority 2022, published 2025):
At least one structure is not confirmed: it was looked up by name or label, or the drawing left a doubt.

How the values were obtained:
[1] = tested on: osteoarthritis patients; conditions: human, in vivo; cited from earlier work
[2] = tested on: surgically induced osteoarthritis model in mice (LMTL+LCL); assay: Surgically induced osteoarthritis (LMTL+LCL) in mice, intra-articular microspheres, histological scoring; format: in vivo, C57BI/6J mice; conditions: single intra-articular injection one week after LMTL+LCL surgery, 10 weeks after surgery; P<0.05 versus PLGA 90:10 vehicle
[3] = tested on: surgically induced osteoarthritis model in mice (MMTL+MCL); assay: Surgically induced osteoarthritis (MMTL+MCL) in mice, intra-articular microspheres, histological scoring; format: in vivo, C57BI/6J mice; conditions: single intra-articular injection one week after MMTL+MCL surgery, 10 weeks after surgery; P<0.01 versus PLGA 90:10 vehicle
[4] = tested on: surgically induced osteoarthritis in mouse knee joints; assay: Oral fenofibrate in surgically induced osteoarthritis in mice, histological scoring; format: in vivo, C57BI/6J mice; conditions: drinking water, 100 mg/kg body weight/day, p<0.05 versus Vehicle

In the case of `CC(C)OC(=O)C(C)(C)Oc1ccc(C(=O)c2ccc(Cl)cc2)cc1` [Fenofibrate], the “physical functions / mobility of osteoarthritis patients” value [1] is given as “improved physical functions”, the “severity of experimental osteoarthritis / joint damage (Safranin O, semiquantitative histological score)” value [2] is given as “reduces joint damage” and the “severity of OA-like changes / joint damage (Safranin O, semiquantitative histological score)” value [3] is given as “reduces joint damage”. For the same molecule, the “joint damage (Safranin O, histological scores)” value [4] was “reduces joint damage”.
